No constants are given. Whether binding was seen depends on the method and setting. For part of these data: In cells and extracts the contact can be indirect. Some entries that bind do so weakly or less than the wild type.
Columns and labels:
[1] = biological target: DR5 endogenous in human fibroblast-like synovial cells (human (endogenous in hFLSCs)) (UniProt O14763); assay: flow cytometry on cells; biotinylated FasL or TRAIL on hFLSCs: wild type, FAS and/or TNFRSF10B knockout, and double knockout cells re-expressing TNFRSF10B and/or FAS; streptavidin staining; only the binder purified
[2] = biological target: DR5 re-expressed in FAS and TNFRSF10B double knockout hFLSCs (human) (UniProt O14763); assay: as above
[3] = biological target: Fas endogenous in human fibroblast-like synovial cells (human (endogenous in hFLSCs)) (UniProt P25445); assay: as above
[4] = biological target: Fas re-expressed in FAS and TNFRSF10B double knockout hFLSCs (human) (UniProt P25445); assay: as above
[5] = biological target: human wild-type DR5 expressed on EL4 mouse T cells (human) (UniProt O14763); assay: flow cytometry on cells; biotinylated FasL or TRAIL on EL4 cells transfected with human TNFRSF10B or FAS, streptavidin-PE; PBS with 1% FBS and 0.09% sodium azide, 30 min, 4°C; with or without preincubation with recombinant hTRAIL or antibodies; only the binder purified
[6] = biological target: human wild-type FasL expressed on EL4 mouse T cells (human) (UniProt P48023); assay: flow cytometry on cells; DR5–Fc on EL4 cells transfected with human wild-type or mutated FASLG; with or without recombinant hTRAIL, anti-DR5 or anti-FasL antibodies; only the binder purified
[7] = biological target: human wild-type DR5 expressed on EL4 mouse T cells (human) (UniProt O14763); assay: flow cytometry on cells; FasL–Fc on EL4 cells transfected with human FAS, wild-type TNFRSF10B or mutated TNFRSF10B; with or without preincubation with human sTRAIL or sFasL; only the binder purified
[8] = biological target: human wild-type Fas expressed on EL4 mouse T cells (human) (UniProt P25445); assay: as above
[9] = biological target: DR5 endogenous in human fibroblast-like synovial cells (human (endogenous in hFLSCs)) (UniProt O14763); assay: co-IP; 10^6 hFLSCs incubated with 200 ng/mL His-tagged TNF-α, FasL or TRAIL for 30 min at 37°C, cross-linked with 5 mM BS3, lysed; immunoprecipitated with anti-DR5 or control IgG, immunoblotted; only the binder purified
[10] = biological target: DR5 endogenous in human fibroblast-like synovial cells (human (endogenous in hFLSCs)) (UniProt O14763); assay: co-IP; competition: hFLSCs preincubated with FasL and TRAIL, with an excess of TRAIL (4 μg/mL) or an excess of FasL (4 μg/mL), cross-linked with BS3; lysates immunoprecipitated with anti-DR5 or control IgG, immunoblotted; only the binder purified
[11] = biological target: DR4 endogenous in human fibroblast-like synovial cells (human (endogenous in hFLSCs)) (UniProt O00220); assay: flow cytometry on cells; FasL–Fc on hFLSCs, detected with PE- or FITC-conjugated anti-human IgG Fc; with anti-Fas and/or anti-DR5 antibodies, siRNA knockdown of TNFRSF members, or preincubation with sTRAIL or sFasL; only the binder purified
[12] = biological target: DR5 endogenous in human fibroblast-like synovial cells (human (endogenous in hFLSCs)) (UniProt O14763); assay: as above
[13] = biological target: Fas endogenous in human fibroblast-like synovial cells (human (endogenous in hFLSCs)) (UniProt P25445); assay: as above

By UniProt entry, the sequences of proteins in these tests, tags left out. Where a name states a change or a piece, a line headed by the entry shows the natural chain unless it says otherwise. Chains listed by the source or under a name are the forms on record and can include a tag or linker. Residues count along the entry.
UniProt O14763: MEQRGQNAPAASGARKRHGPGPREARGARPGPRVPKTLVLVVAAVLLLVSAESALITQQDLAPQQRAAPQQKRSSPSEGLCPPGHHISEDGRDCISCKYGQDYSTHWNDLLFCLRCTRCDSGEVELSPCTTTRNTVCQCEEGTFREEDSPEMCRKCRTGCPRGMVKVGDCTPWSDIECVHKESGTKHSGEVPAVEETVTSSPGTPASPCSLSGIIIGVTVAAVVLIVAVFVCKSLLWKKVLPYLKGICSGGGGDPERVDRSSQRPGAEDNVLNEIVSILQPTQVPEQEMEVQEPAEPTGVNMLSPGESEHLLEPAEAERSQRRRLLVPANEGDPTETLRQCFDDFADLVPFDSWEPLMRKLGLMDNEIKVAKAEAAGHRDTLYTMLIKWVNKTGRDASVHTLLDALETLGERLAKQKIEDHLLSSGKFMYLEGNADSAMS
DR5 endogenous in human fibroblast-like synovial cells (human (endogenous in hFLSCs)): residues 56-440 of O14763
human wild-type DR5 expressed on EL4 mouse T cells (O14763, form named): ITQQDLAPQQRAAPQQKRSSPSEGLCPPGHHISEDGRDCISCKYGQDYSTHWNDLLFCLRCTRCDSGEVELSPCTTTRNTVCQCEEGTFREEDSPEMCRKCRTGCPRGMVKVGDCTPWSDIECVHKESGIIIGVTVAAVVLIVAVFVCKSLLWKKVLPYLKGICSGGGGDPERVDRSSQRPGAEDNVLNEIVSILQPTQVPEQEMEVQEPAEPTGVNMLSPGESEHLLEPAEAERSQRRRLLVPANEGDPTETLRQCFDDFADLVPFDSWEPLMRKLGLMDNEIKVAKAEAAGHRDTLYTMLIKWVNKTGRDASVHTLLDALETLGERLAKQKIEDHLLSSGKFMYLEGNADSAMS
UniProt P25445, residues 26-335: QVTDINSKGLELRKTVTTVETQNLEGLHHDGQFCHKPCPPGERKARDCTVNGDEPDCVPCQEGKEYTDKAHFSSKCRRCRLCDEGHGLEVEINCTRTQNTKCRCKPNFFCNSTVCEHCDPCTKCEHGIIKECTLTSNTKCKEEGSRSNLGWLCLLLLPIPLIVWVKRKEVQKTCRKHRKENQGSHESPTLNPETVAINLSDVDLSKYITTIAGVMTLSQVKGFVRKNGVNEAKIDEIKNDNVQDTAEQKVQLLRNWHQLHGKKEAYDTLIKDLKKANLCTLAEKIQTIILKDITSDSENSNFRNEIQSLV
UniProt P48023: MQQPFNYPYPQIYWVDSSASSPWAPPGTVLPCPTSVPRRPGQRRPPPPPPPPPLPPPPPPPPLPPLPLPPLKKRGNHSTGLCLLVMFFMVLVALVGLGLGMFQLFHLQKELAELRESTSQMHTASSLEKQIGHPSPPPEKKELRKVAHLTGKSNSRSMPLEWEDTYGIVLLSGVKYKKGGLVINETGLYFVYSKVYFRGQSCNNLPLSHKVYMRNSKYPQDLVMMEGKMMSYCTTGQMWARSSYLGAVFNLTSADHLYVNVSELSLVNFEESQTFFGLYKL
UniProt O00220, residues 24-468: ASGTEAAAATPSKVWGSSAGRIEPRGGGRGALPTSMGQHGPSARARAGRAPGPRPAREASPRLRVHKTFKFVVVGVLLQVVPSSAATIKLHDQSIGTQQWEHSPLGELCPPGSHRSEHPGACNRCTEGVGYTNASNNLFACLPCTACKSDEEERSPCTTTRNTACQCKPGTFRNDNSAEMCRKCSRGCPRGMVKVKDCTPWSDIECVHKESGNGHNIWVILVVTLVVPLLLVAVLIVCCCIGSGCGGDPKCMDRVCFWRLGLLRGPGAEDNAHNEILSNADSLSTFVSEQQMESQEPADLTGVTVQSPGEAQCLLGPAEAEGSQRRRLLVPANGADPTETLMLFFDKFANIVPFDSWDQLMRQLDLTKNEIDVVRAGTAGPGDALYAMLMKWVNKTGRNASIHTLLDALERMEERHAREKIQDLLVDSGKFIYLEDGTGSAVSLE

biotinylated recombinant human Fas ligand (from UniProt P48023 130-281)
binding [1]: binds | binding [2]: binds | binding [3]: binds | binding [4]: binds | binding [5]: binds

Recombinant Human TRAIL R2/TNFRSF10B Fc Chimera Protein (from UniProt O14763 56-210) (Fc fusion)
binding [6]: binds

recombinant human soluble Fas ligand (His-tagged) (from UniProt P48023 130-281)
binding [7]: binds | binding [8]: binds | binding [9]: binds | binding [10]: binds

recombinant human FasL–Fc fusion protein (from UniProt P48023 130-281)
binding [7]: binds | binding [8]: binds | binding [11]: no binding | binding [12]: binds | binding [13]: binds

Source: article PMC8257255, “Soluble Fas ligand drives autoantibody-induced arthritis by binding to DR5/TRAIL-R2” (eLife, 2021)
